No constants are given. Whether binding was seen depends on the method and setting. In cells and extracts the contact can be indirect. Here binding means that the protein was enriched with, or labelled near, the bait; the list need not be complete.
B1: catalytic subunit of PPP6 (PPP6C) (enzyme, UniProt O00743 1-305)
chain: MAPLDLDKYVEIARLCKYLPENDLKRLCDYVCDLLLEESNVQPVSTPVTVCGDIHGQFYDLCELFRTGGQVPDTNYIFMGDFVDRGYYSLETFTYLLALKAKWPDRITLLRGNHESRQITQVYGFYDECQTKYGNANAWRYCTKVFDMLTVAALIDEQILCVHGGLSPDIKTLDQIRTIERNQEIPHKGAFCDLVWSDPEDVDTWAISPRGAGWLFGAKVTNEFVHINNLKLICRAHQLVHEGYKFMFDEKLVTVWSAPNYCYRCGNIASIMVFKDVNTREPKLFRAVPDSERVIPPRTTTPYFL

Chains of the proteins cited; added tags and fusions are not shown.
UniProt Q96KQ7: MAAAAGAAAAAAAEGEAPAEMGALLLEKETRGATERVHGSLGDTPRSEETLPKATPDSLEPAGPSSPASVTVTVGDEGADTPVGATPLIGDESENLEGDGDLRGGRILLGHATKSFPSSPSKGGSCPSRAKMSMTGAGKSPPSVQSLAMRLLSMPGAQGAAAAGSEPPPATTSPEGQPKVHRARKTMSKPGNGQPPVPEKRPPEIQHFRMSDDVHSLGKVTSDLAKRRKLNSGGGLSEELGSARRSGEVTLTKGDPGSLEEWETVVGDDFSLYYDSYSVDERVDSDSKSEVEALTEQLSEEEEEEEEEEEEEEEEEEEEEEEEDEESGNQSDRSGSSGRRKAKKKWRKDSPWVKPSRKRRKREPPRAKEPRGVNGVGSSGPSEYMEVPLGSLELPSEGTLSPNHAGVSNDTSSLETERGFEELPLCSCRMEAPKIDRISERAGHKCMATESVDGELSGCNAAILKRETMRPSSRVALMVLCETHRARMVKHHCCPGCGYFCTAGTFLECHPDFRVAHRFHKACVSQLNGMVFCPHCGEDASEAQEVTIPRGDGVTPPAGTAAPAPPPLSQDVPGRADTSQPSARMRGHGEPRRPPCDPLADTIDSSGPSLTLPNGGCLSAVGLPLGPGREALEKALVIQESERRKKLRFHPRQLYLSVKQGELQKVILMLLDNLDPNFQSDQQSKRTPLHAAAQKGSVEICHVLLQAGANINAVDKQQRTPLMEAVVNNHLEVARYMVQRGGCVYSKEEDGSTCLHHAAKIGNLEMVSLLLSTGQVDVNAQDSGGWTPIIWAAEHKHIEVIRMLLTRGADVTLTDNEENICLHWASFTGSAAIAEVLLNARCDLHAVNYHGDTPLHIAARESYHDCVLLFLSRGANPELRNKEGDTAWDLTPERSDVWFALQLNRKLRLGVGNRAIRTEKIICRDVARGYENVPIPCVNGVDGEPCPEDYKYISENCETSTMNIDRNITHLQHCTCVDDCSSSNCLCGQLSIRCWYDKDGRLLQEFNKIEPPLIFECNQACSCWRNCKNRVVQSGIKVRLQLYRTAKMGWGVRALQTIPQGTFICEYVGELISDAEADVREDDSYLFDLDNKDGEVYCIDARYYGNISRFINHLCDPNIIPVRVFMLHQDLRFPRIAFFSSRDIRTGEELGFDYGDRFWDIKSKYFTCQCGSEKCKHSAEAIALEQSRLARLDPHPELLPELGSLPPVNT
UniProt P63151: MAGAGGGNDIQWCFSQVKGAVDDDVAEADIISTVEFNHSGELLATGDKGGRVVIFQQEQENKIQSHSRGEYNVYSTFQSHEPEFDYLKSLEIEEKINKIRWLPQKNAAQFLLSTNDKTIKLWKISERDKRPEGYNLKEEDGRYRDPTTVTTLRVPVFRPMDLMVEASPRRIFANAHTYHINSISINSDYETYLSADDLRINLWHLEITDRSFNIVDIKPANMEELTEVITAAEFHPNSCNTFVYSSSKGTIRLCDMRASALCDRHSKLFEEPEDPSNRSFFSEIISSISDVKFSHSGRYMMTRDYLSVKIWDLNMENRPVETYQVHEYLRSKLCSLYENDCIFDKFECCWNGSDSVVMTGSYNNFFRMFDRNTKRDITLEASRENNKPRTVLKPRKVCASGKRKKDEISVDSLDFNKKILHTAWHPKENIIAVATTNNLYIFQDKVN
UniProt P36873: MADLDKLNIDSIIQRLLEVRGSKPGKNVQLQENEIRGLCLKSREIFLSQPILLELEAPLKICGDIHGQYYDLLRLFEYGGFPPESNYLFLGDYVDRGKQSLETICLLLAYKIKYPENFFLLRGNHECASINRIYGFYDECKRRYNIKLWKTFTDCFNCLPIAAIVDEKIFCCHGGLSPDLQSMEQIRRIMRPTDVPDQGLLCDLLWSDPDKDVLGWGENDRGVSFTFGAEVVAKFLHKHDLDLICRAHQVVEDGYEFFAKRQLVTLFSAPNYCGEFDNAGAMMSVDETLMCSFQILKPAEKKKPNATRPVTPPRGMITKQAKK
UniProt P62714: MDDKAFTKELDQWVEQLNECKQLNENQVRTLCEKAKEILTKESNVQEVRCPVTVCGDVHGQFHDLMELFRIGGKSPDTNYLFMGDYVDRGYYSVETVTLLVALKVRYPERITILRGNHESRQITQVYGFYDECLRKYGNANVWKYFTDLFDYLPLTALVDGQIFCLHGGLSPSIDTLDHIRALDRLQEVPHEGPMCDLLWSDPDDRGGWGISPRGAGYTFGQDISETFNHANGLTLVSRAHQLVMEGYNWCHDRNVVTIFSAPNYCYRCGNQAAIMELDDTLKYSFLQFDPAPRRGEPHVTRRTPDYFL

Molecular target: Flag‐BirA‐G9a (human G9a fused to the biotin ligase BirA) (human) (UniProt Q96KQ7)
Test: proximity labelling; Flag‐BirA‐hG9a in HEK293T cells with or without biotin (100 µM, 16 h) and 18 h nocodazole; lysis in IP buffer (25 mM Tris‐HCl pH 7.4, 150 mM NaCl, 5% glycerol, 1 mM EDTA, 1% NP‐40); streptavidin resin overnight at 4 °C, washed with 500 mM NaCl IP buffer; whole gel lane analysed by mass spectrometry

Molecule | binding
B55alpha regulatory subunit of PPP2 (PPP2R2A) (from UniProt P63151 1-447) | binds
alpha isoform of the catalytic subunit of PPP3 (PPP3CA) (from UniProt Q08209 1-521) (enzyme) | binds
gamma isoform of the catalytic subunit of PPP1 (PPP1CC) (from UniProt P36873 1-323) (enzyme) | binds
beta‐isoform of the catalytic subunit of PPP2 (PPP2CB) (from UniProt P62714 1-309) (enzyme) | binds
B1 | binds

Source: publication PMC10602519
